# In article PMC2906515:
# By UniProt entry, the sequences of proteins in these tests, tags left out.
# UniProt P09216: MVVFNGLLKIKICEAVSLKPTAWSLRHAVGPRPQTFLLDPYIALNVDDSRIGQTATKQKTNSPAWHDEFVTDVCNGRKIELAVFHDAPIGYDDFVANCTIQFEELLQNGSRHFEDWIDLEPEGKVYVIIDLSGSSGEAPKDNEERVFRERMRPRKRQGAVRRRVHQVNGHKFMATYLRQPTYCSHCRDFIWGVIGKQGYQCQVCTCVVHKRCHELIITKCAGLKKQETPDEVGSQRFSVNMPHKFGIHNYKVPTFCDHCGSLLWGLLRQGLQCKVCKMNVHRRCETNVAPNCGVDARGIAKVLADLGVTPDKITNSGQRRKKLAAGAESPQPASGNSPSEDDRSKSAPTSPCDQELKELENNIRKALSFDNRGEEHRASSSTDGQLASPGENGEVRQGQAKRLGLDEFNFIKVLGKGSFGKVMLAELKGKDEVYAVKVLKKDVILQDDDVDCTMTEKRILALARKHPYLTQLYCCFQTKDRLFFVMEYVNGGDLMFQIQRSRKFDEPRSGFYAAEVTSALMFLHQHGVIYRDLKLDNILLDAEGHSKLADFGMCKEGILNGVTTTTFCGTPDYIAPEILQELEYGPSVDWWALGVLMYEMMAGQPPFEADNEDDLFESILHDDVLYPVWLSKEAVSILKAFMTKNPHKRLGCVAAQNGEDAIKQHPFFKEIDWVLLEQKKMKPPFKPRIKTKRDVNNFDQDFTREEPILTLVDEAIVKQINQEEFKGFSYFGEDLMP
# These are yes or no findings as the source states them, for the method shown. In cells and extracts the contact can be indirect. Some binding calls cover weakened binding; strength is not graded here. Tags and fused reporters may be left off the sequences shown.
# Molecular target: T1, MBP-TRPV4-Ct (C-terminal cytoplasmic domain of TRPV4 fused with MBP) (UniProt Q9ERZ8)
# T1 sequence: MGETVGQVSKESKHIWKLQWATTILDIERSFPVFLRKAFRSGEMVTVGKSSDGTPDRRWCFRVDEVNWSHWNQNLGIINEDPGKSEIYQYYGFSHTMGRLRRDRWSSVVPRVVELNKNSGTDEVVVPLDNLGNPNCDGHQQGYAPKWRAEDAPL
# Experiment: pull-down; MBP fusion protein on amylose resin incubated with soluble porcine brain extract or soluble F11 extract (1 mg/ml), 1 hour at RT, PEM-S buffer (50 mM PIPES pH 6.8, 100 mM NaCl, 1 mM EGTA, 0.2 mM MgCl2), in the presence or absence of Ca2+; eluted with maltose; immunoblot; only the target purified
substance,measurement,value
"PKCε, endogenous in F11 cells (from UniProt P09216 1-737) (enzyme)",binding,binds
